TEAD-luciferase reporter activity data for 25 compounds are collected here from the supplement of paper PMC10735217.

The test system of this experiment is HEK293A TEAD-LUC reporter. Description: TEAD-luciferase reporter activity (YAP activation), robust Z score vs plate; higher = stronger YAP/TEAD activation. The note with it: 24 h.

Where a name gives a salt, the structure may show the parent alone. Some of the results follow. Repeats in this data set agree poorly, so a single value says little.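 The human kidney-derived cells carry a stably integrated construct of eight TEAD-binding elements driving luciferase, read by luminescence in a drug-repurposing library screen. A compound counts as a hit when its signal is more than five robust Z scores above the plate mean.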

Consider `NC1=NC(=O)N([C@@H]2O[C@H](CO)[C@@H](O)[C@H]2O)CN1`, for which the TEAD-luciferase reporter activity is inactive: 0.132 (compound concentration: 200 nM), inactive: 0.575 (compound concentration: 2 uM) and inactive: -1.77 (compound concentration: 10 uM).

Take `CCCCCCC(=O)OCC(COC(=O)CCCCCC)OC(=O)CCCCCC` [triheptanoin, Ultragenyx]: the TEAD-luciferase reporter activity (compound concentration: 200 nM) was inactive: -1.85, the TEAD-luciferase reporter activity (compound concentration: 2 uM) is inactive: 4.36 and the TEAD-luciferase reporter activity (compound concentration: 10 uM) is inactive: 0.54.

As to `O=C(NOCC1CC1)c1ccc(F)c(F)c1Nc1ccc(I)cc1Cl`, the TEAD-luciferase reporter activity is, setting by setting: (compound concentration: 200 nM) inactive: -1.47; (compound concentration: 2 uM) inactive: 0.267; (compound concentration: 10 uM) inactive: 0.322.

Take `CCN(CCCCOC(=O)c1ccc(OC)c(OC)c1)C(C)Cc1ccc(OC)cc1` (centres undefined): the TEAD-luciferase reporter activity (compound concentration: 200 nM) was inactive: 0.0359 and the TEAD-luciferase reporter activity (compound concentration: 10 uM) is inactive: 0.336.

Take `CCN(CCCCOC(=O)c1ccc(OC)c(OC)c1)C(C)Cc1ccc(OC)cc1` (centres undefined) [mebeverine]: the TEAD-luciferase reporter activity (compound concentration: 2 uM) was inactive: 2.26.

With `O=C(O)[C@H]1O[C@@H](O[C@H]2[C@H](O)[C@H](O)[C@H](O[C@H]3[C@H](O)[C@H](O)[C@H](O)O[C@H]3C(=O)O)O[C@H]2C(=O)O)[C@@H](O)[C@@H](O)[C@@H]1O`, the TEAD-luciferase reporter activity by setting is: (compound concentration: 200 nM) inactive: 0.62; (compound concentration: 10 uM) inactive: 1.26.

`O=C(/C=C/c1ccccc1)NCCO` [idrocilamide]: the TEAD-luciferase reporter activity is, setting by setting: (compound concentration: 200 nM) inactive: -0.0639; (compound concentration: 2 uM) inactive: -1.1; (compound concentration: 10 uM) inactive: -0.728.

Regarding `CC1(C)CCC2(CC1)N[C@@H](C(=O)N[C@@H]1CC[C@@H](C(N)=O)OC1)[C@H](c1ccnc(Cl)c1F)[C@]21C(=O)Nc2cc(Cl)ccc21` [Milademetan tosylate], the TEAD-luciferase reporter activity runs as follows: (compound concentration: 200 nM) inactive: -2.33; (compound concentration: 10 uM) inactive: 1.11.

As to `Cc1cc2cc3c(C)cc(=O)oc3c(C)c2o1`, the TEAD-luciferase reporter activity is, setting by setting: (compound concentration: 200 nM) inactive: -0.576; (compound concentration: 2 uM) inactive: -1.76; (compound concentration: 10 uM) inactive: -1.09.

For the compound `O=c1oc(CCN2CCN(c3ccccc3)CC2)c(-c2ccc(F)cc2)o1` [fludoxopone], the TEAD-luciferase reporter activity (compound concentration: 200 nM) was inactive: -0.0872, the TEAD-luciferase reporter activity (compound concentration: 2 uM) is inactive: 1.04 and the TEAD-luciferase reporter activity (compound concentration: 10 uM) is inactive: 1.63.

Turning to `CC1=CC(C)(C)Nc2ccc3c(c21)C(c1cccc(Cl)c1)Oc1ccc(F)cc1-3` (centres undefined), the TEAD-luciferase reporter activity (compound concentration: 200 nM) was inactive: -1.29, the TEAD-luciferase reporter activity (compound concentration: 2 uM) is inactive: 0.878 and the TEAD-luciferase reporter activity (compound concentration: 10 uM) was inactive: -0.582.

Turning to `O=S(=O)(O)CCS(=O)(=O)O` [Clomethiazole edisilate], the TEAD-luciferase reporter activity is, setting by setting: (compound concentration: 200 nM) inactive: -0.137; (compound concentration: 2 uM) inactive: -1.88; (compound concentration: 10 uM) inactive: 0.322.

On to `CCOC(=O)CNC(=O)[C@@H]1CCCN1C(=O)Cc1ccccc1`, for which the TEAD-luciferase reporter activity (compound concentration: 200 nM) was inactive: -1.58, the TEAD-luciferase reporter activity (compound concentration: 2 uM) was inactive: 0.181 and the TEAD-luciferase reporter activity (compound concentration: 10 uM) was inactive: -0.538.

For `Cn1ncc2c1Nc1cc(Cl)ccc1N(C(=O)c1ccc(CNC(=O)C3CC3)c(F)c1)C2`, the TEAD-luciferase reporter activity (compound concentration: 200 nM) is inactive: -0.408, the TEAD-luciferase reporter activity (compound concentration: 2 uM) is inactive: -0.337 and the TEAD-luciferase reporter activity (compound concentration: 10 uM) is inactive: -0.188.

For `CC(C)CCCC(C)Cc1ccc(C(C)CC(=O)NCCO)cc1` (centres undefined), the TEAD-luciferase reporter activity (compound concentration: 200 nM) was inactive: 0.125, the TEAD-luciferase reporter activity (compound concentration: 2 uM) was inactive: 1.17 and the TEAD-luciferase reporter activity (compound concentration: 10 uM) was inactive: -0.738.

With `O=S(=O)(O)c1cc(I)c(O)c2ncccc12`, the TEAD-luciferase reporter activity was inactive: 0.658 (compound concentration: 200 nM), inactive: 1.12 (compound concentration: 2 uM) and active: 5.98 (compound concentration: 10 uM).

As for `CCN(CC)CCO/N=C(/c1ccco1)c1ccc(OC)c(Cl)c1Cl` [Diclofurime], the TEAD-luciferase reporter activity is inactive: -0.581 (compound concentration: 200 nM), inactive: 1.09 (compound concentration: 2 uM) and inactive: -0.977 (compound concentration: 10 uM).

Take `C[C@H]1C[C@@](O)(c2csc(Sc3ccc4c(c3)CC(=O)N4C)c2)CCO1`: the TEAD-luciferase reporter activity is, setting by setting: (compound concentration: 200 nM) inactive: 3.76; (compound concentration: 2 uM) inactive: -0.529; (compound concentration: 10 uM) inactive: 0.516.

Turning to `CCCCCCCC/C=C\CCCCCCCC(=O)OCC(COC(=O)CCCCCCC/C=C\CCCCCCCC)OC(=O)CCCCCCC/C=C\CCCCCCCC`, the TEAD-luciferase reporter activity is inactive: 1.2 (compound concentration: 200 nM), inactive: 0.697 (compound concentration: 2 uM) and inactive: 1.69 (compound concentration: 10 uM).

With `COc1ccc(CCNCCC[C@](C#N)(c2ccc(OC)c(OC)c2)C(C)C)cc1OC` [Arverapamil], the TEAD-luciferase reporter activity was inactive: -0.231 (compound concentration: 200 nM), inactive: 0.411 (compound concentration: 2 uM) and inactive: 0.837 (compound concentration: 10 uM).

For `CN1CCN(C(=O)[C@]2(C)CO[C@@H](c3nc(-c4ccnc(NCC5CC5)n4)c(-c4ccc(F)cc4)[nH]3)OC2)CC1`, the TEAD-luciferase reporter activity (compound concentration: 200 nM) was inactive: -0.0873, the TEAD-luciferase reporter activity (compound concentration: 2 uM) was inactive: -1.57 and the TEAD-luciferase reporter activity (compound concentration: 10 uM) was inactive: -2.2.

As for `O=C(O)[C@H]1CN(C/C=C/P(=O)(O)O)CCN1` [Midafotel], the TEAD-luciferase reporter activity was inactive: -0.132 (compound concentration: 200 nM) and inactive: 3.32 (compound concentration: 10 uM).

On to `O=C(O)/C=C/c1ccc(-c2ccc(O)c(C34CC5CC(CC(C5)C3)C4)c2)cc1` [Adarotene], for which the TEAD-luciferase reporter activity (compound concentration: 200 nM) is inactive: -0.737, the TEAD-luciferase reporter activity (compound concentration: 2 uM) is inactive: -2.61 and the TEAD-luciferase reporter activity (compound concentration: 10 uM) is inactive: -1.66.

Turning to `Cc1cc(C(=O)NCCc2ccc(S(=O)(=O)NC(=O)NC3CCCCC3)cc2)no1`, the TEAD-luciferase reporter activity (compound concentration: 200 nM) is inactive: -0.886, the TEAD-luciferase reporter activity (compound concentration: 2 uM) was inactive: -1.15 and the TEAD-luciferase reporter activity (compound concentration: 10 uM) is inactive: -0.889.

`O=C(NCc1ccc2c(c1)OCO2)C1Cc2c(sc3ccccc23)CN1` (centres undefined): the TEAD-luciferase reporter activity is inactive: 0.128 (compound concentration: 200 nM), inactive: -0.368 (compound concentration: 2 uM) and inactive: -1.07 (compound concentration: 10 uM).
